Laboratory results published in patent US12042530B2, “Target peptides for immunotherapy and diagnostics” (University of Virginia Patent Foundation, priority 2012, dated 2024).
For some assays here: Not every detail of the peptide structures is certain; ends, links or a residue may be inferred. For some assays here: For at least one compound, name, drawing or mass did not settle the structure. Non-standard residues stand in square brackets, D forms with d. Residues, ends and D or L forms follow the SMILES beside them. pS = N[C@@H](COP(=O)(O)O)C(=O)O

Legend:
[1] = biological target: HLA A*0201 (Homo sapiens, UniProt P04439, D140Y/D185E/D98H/E176V/E277Q/G131W/G231S/I119V/I121R/I166T/I218V/L300P/L318F/N151K/N90K/P208A/P217A/Q86G/Q94H/R138H/R169H/T345S); test: HLA-A*0201 peptide-binding competition assay; conditions: for Increase of HLA-A*0201 binding affinity over the natural phosphopeptide: Ala to Val at C-terminus
Method: Affinity purified HLA-A*0201 was incubated with iodinated peptide […] (SEQ ID NO: 2379), graded doses of test peptides, and β2M as previously described (Zarling et al., 2000). Peptide-MHC complexes were captured in W6/32-coated ELISA plates after 48 hours and the dose at which test peptides inhibited binding of the indicator peptide by 50% (IC50) was calculated.

[2] = system: CD8 T cells; test: Immunization of AAD Tg mice with peptide-pulsed BMDCs, ex vivo intracellular cytokine staining; format: in vivo, mouse; conditions: for Primary CD8 T cell response (IFNγ and TNFα) / Memory recall CD8 T cell response: AAD Tg mice; for Primary CD8 T cell response (IFNγ and TNFα): 7 days after peptide-pulsed BMDCs; for Memory recall CD8 T cell response: boost with peptide, CpG and anti-CD40
[3] = system: human T cells; test: Human T cell culture and 51Cr-release assay; format: cell-based; conditions: for In vitro human CD8 T cell responses: after 2 weeks of culture
[4] = system: PBMCs; test: Memory T cell response, IFNγ ELISpot, healthy A2 positive donors; format: cell-based, human
[5] = system: human CD8 T cells; test: Tetramer staining of human CD8 T cells; format: cell-based; conditions: 5 week in vitro cultures with pS33-βcat(V)30
[6] = system: murine CD8 T cells; test: Recognition of peptide-pulsed stimulators by pS33-βcat(V)-specific murine T cells (dose response, ICS); format: cell-based, mouse
[7] = system: melanoma; conditions: cited from earlier work; for Response rate, Phase III study: dacarbazine compared with temozolomide

CC[C@H](C)[C@H](NC(=O)CNC(=O)[C@H](COP(=O)(O)O)NC(=O)[C@H](CC(=O)O)NC(=O)[C@H](CC(C)C)NC(=O)[C@@H](N)Cc1ccc(O)cc1)C(=O)N[C@@H](Cc1c[nH]cn1)C(=O)N[C@@H](COP(=O)(O)O)C(=O)NCC(=O)N[C@@H](C)C(=O)O [pS33/S37-βcat30] (H-YLD[pS]GIH[pS]GA-OH)
HLA-A*0201 (MHC) binding affinity, in words [1]: bound almost as well to HLA-A*0201 as p533-βcat30

CC[C@H](C)[C@H](NC(=O)CNC(=O)[C@H](COP(=O)(O)O)NC(=O)[C@H](CC(=O)O)NC(=O)[C@H](CC(C)C)NC(=O)[C@@H](N)Cc1ccc(O)cc1)C(=O)N[C@@H](Cc1c[nH]cn1)C(=O)N[C@@H](CO)C(=O)NCC(=O)N[C@H](C(=O)O)C(C)C [SEQ ID NO: 2080, YLDsGIHSGV] (H-YLD[pS]GIHSGV-OH)
Primary CD8 T cell response (IFNγ and TNFα) [2]: induced discernable primary and memory recall CD8 T cell responses
Memory recall CD8 T cell response [2]: induced discernable primary and memory recall CD8 T cell responses
In vitro human CD8 T cell responses [3]: induced measurable in vitro human CD8 T cell responses
Day 7 ELISpot, donor beta ([4]; healthy A2 positive donor beta): + (3-24 spots)
Day 7 ELISpot, donor one ([4]; healthy A2 positive donor one): + (3-24 spots)
Fraction of human CD8+ T cells staining with the tetramer of the peptide [5]: 1-3%
Increase of HLA-A*0201 binding affinity over the natural phosphopeptide ([1]; listed as p533-βcat(V)30): 8 fold
Increase of HLA-A*0201 binding affinity over the natural phosphopeptide ([1]; listed as p533-βcatenin30-39(V)): about 10 fold
pS33-βcat(V)-specific murine T cells that recognized stimulators pulsed with the natural phosphopeptide ([6]; freshly isolated T cells, maximal dose 1 μg/ml): 92-100%

CN(C)/N=N/c1[nH]cnc1C(N)=O [dacarbazine]
Response rate, single agent ([7]; advanced-stage malignant melanoma): 10-15%
Response rate, Phase III study [7]: 12%
Overall response rate, initial studies ([7]; metastatic melanoma): 22%

CC[C@H](C)[C@H](NC(=O)CNC(=O)[C@H](COP(=O)(O)O)NC(=O)[C@H](CC(=O)O)NC(=O)[C@H](CC(C)C)NC(=O)[C@@H](N)Cc1ccc(O)cc1)C(=O)N[C@@H](Cc1c[nH]cn1)C(=O)N[C@@H](CO)C(=O)NCC(=O)N[C@@H](C)C(=O)O [SEQ ID NO: 427, YLD(pS)GIHSGA] (H-YLD[pS]GIHSGA-OH)
Primary CD8 T cell response (IFNγ and TNFα) [2]: not discernable
Memory recall CD8 T cell response ([2]; listed as p533-βcat30): not observed
Memory recall CD8 T cell response ([2]; listed as pS33-βcatenin30-39): almost undetectable
Immunogenicity, in words ([2]; mouse, in vivo): weak immunogen
In vitro human CD8 T cell responses [3]: no specific responses
Wells with pS33-βcat-reactive T cells ([3]; human T cells, after 3 weeks of in vitro culture): 4 out of 10
Fraction of human CD8+ T cells staining with the tetramer of the peptide [5]: 0.8-2%
pS33-βcat30 tetramer staining relative to pS33-βcat(V)30 tetramer staining [5]: 25-100%
HLA-A*0201 (MHC) binding affinity, in words [1]: relatively low affinity
Difference of peptide dose for equivalent T cell recognition versus pS33-βcat(V)30 ([6]; freshly isolated murine T cells, FIG. 3B): 2-5 fold
Difference in dose-response curve versus pS33-βcat(V)30 ([6]; long-term murine T cell line, Line 1): 73 fold
Shift of dose response curve relative to pS33-βcat(V)30 ([6]; stimulators pulsed, washed, incubated 40 hours before T cells, both T cell lines): 6-10 fold

Cn1nnc2c(C(N)=O)ncn2c1=O [temozolomide]
Response rate, Phase III study [7]: 13%
